Data as given in patent US20220339194A1 (A2 BIOTHERAPEUTICS, published 2022).

Target: HLA-A*02 on target cells
Assay: cell-based or functional assay

B1: HLA-A*02 LIR1 inhibitory receptor C-1765 (mPA2.1) (receptor)
chain: DVLMTQTPLSLPVSLGDQASISCRSSQSIVHSNGNTYLEWYLQKPGQSPKLLIYKVSNRFSGVPDRFSGSGSGTDFTLKISRVEAEDLGVYYCFQGSHVPRTSGGGTKLEIKGGGGSGGGGSGGGGSGGQVQLQQSGPELVKPGASVRISCKASGYTFTSYHIHWVKQRPGQGLEWIGWIYPGNVNTEYNEKFKGKATLTADKSSSTAYMHLSSLTSEDSAVYFCAREEITYAMDYWGQGTSVTVSSYGSQSSKPYLLTHPSDPLELVVSGPSGGPSSPTTGPTSTSGPEDQPLTPTGSDPQSGLGRHLGVVIGILVAVILLLLLLLLLFLILRHRRQGKHWTSTQRKADFQHPAGAVGPEPTDRGLQWRSSPAADAQEENLYAAVKHTQPEDGVEMDTRSPHDEDPQAVTYAEVKHSRPRREMASPPSPLSGEFLDTKDRQAEEDRQMDTEAAASEAPQDVTYAQLHSLTLRREATEPPPSQEGPSPAVPSIYATLAIH
IC50 (molecules/cell), inhibition of Jurkat NFAT luciferase activation, mRNA titration in HeLa; construct CT1110 (CT292 + Murine blocker): 28000 molecules/cell
IC50 (molecules/cell), inhibition of Jurkat NFAT luciferase activation, mRNA titration in HeLa; construct CT1112 (CT299 + Murine blocker): 33700 molecules/cell
IC50 (molecules/cell), inhibition of Jurkat NFAT luciferase activation, mRNA titration in HeLa; construct CT1113 (CT1094 + Murine blocker): 38800 molecules/cell
